{"source": "paper PMC10776562", "biological_target": "T1, SH3 domain containing ring finger 2 (SH3RF2) (human (endogenous in A2780/DDP and SKOV3/DDP)) (UniProt Q8TEC5)", "T1 sequence": "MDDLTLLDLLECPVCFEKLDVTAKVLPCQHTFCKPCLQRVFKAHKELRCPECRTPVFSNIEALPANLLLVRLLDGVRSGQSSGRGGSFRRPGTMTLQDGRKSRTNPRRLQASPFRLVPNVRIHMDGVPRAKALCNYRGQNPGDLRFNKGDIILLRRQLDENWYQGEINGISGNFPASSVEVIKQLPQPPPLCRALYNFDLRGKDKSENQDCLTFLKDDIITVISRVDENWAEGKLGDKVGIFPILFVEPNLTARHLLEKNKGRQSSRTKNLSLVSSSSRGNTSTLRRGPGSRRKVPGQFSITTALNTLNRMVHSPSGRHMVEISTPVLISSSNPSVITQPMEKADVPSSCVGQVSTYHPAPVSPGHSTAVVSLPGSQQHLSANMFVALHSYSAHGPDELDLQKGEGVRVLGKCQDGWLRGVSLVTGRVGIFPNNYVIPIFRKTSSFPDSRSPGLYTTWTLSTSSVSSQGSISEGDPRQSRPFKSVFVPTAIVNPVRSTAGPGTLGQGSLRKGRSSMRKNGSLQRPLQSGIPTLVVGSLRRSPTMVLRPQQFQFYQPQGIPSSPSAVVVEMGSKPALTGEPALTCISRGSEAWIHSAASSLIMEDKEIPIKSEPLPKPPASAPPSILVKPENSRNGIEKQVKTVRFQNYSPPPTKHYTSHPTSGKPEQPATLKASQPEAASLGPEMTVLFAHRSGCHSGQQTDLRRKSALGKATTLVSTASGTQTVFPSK", "test": "co-IP; endogenous proteins; anti-SH3RF2 or anti-RBPMS immobilised on AminoLink plus coupling resin (Pierce Co-Immunoprecipitation Kit), total lysates of DDP-resistant A2780 and SKOV3 cells (also parental SKOV3) added; eluates blotted with anti-RBPMS and anti-SH3RF2", "note": "No constants are given. Whether binding was seen depends on the method and setting. Binding seen in cells or lysates may run through a third protein. Some results given as binding are weak or reduced against the parent protein; the word gives no strength."}
{"substance": "RNA binding protein, mRNA processing factor (RBPMS) (from UniProt Q93062 1-196)", "values": [{"measurement": "binding", "result": "binds"}]}
